Laboratory results from PMC3573033, “Allosteric Regulation of Serine Protease HtrA2 through Novel Non-Canonical Substrate Binding Pocket” (PLoS ONE, 2013).

Molecular target: HtrA2 N216A/S219A (SBP double mutant), mature (Δ133 HtrA2)
Assay: condition: 0.4 mM activator peptide injected into 20 to 50 µM protein; ITC; MicroCal ITC200; 200 µl of wild type or N216A/S219A HtrA2 (20 to 50 µM) in the cell, titrated with 1.5 µl injections of 0.4 mM activator peptide; 20 mM Na2HPO4/NaH2PO4, 100 mM NaCl, pH 7.8; 25°C; one site-binding model; both purified

binding: no binding
Binder: SEHRRHFPNCFFV [13mer activating peptide SEHRRHFPNCFFV]

These are yes or no findings as the source states them, for the method shown.
